In PMC10732220 one finds binding data, which are given here for 1 substance.

The chains behind the UniProt entries cited, without tags or fusion partners. Where a name states a change or a piece, a line headed by the entry shows the natural chain unless it says otherwise.
UniProt Q7VWI6: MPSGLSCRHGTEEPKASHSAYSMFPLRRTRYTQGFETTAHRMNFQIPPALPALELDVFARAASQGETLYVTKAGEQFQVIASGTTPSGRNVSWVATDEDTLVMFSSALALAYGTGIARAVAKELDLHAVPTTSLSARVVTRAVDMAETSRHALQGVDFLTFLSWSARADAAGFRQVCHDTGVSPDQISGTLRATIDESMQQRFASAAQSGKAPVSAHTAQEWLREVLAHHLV

These are yes or no findings as the source states them, for the method shown. In cells and extracts the contact can be indirect. A yes stands for co-enrichment or nearness to the bait. Other partners may have been found. Sequences can lack the tags named with a protein.

The target in this assay is T1, CesT family T3SS chaperone BP2265, triple FLAG-tagged (Bordetella pertussis (strain B1917)) (UniProt Q7VWI2).
T1 sequence: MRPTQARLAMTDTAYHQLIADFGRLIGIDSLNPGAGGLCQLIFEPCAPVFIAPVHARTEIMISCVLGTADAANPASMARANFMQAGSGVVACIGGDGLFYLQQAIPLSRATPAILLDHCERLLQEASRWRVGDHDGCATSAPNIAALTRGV
In words: affinity purification with mass spectrometry; cleared lysates of B. pertussis B1917 with FLAG-tagged BP2265 (bait) or non-tagged BP2265 (control), in triplicate, on ANTI-FLAG M2 magnetic beads, about 16 h at 4 °C; lysis buffer TBS (50 mM Tris pH 7.5, 150 mM NaCl), 1 mM EDTA, 0.1% IGEPAL CA-630; washed three times in TBS; beads-bound fraction and elution fraction (100 mM glycine pH 3) both analysed by LC-MS/MS.

Take “anti-sigma factor BtrA (from UniProt Q7VWI6)”: the binding entry is reported as “binds”.
